This is one part of the list.
What follows are targets tested with Cc1nc(Nc2n[nH]c3c2CN(C(=O)N[C@H](CN(C)C)c2ccccc2)C3(C)C)c2sccc2n1 (assay: log2 fold change, soluble protein after heating vs DMSO (PISA); higher = thermal stabilisation; K562 cells, 10 uM, 30 min; active = over 0.2 and 3.5 SD of the protein, either way, in both replicates (recomputed)).
Outline: (§1)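 Thermal stability values are relative to control samples and come from duplicates. They are expressed as log2 fold changes. For measurement, K562 cells (2×10^6 cells/mL) received 10 μM compound for 30 min, and aliquots were heated for 3 min over 48°C-58°C, pooled, and extracted at 4°C in PBS with 0.5% NP-40. Soluble protein, the supernatant after 21,000xg for 90 min, was quantified by TMTpro 16plex LC-MS/MS with equalised channel sums.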

Protein sequences, listed by entry. Tags and fused reporters are not part of them. Lines headed by an entry give the natural chain unless they say otherwise; changes in a name come on top.
UniProt Q96GD4, whole entry, looked up: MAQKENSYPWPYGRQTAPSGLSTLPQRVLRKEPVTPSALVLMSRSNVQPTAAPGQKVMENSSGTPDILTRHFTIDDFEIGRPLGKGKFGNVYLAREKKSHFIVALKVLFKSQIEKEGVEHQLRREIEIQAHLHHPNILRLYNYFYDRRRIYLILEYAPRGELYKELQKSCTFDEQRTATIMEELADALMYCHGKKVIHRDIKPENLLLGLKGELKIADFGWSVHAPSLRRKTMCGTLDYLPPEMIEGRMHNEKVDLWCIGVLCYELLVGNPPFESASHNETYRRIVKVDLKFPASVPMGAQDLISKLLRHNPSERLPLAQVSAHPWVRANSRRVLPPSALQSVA
UniProt Q9NYM9: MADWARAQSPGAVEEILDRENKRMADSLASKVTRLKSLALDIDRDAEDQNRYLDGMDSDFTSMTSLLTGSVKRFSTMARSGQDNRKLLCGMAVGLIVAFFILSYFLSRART
UniProt O60238, whole entry, looked up: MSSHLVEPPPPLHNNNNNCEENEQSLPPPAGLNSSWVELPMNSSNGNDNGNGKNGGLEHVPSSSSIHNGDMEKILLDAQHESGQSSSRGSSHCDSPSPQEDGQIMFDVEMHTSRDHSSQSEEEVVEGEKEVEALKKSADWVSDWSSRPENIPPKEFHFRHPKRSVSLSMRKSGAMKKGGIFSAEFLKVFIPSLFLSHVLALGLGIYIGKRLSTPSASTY
UniProt Q8TDL5: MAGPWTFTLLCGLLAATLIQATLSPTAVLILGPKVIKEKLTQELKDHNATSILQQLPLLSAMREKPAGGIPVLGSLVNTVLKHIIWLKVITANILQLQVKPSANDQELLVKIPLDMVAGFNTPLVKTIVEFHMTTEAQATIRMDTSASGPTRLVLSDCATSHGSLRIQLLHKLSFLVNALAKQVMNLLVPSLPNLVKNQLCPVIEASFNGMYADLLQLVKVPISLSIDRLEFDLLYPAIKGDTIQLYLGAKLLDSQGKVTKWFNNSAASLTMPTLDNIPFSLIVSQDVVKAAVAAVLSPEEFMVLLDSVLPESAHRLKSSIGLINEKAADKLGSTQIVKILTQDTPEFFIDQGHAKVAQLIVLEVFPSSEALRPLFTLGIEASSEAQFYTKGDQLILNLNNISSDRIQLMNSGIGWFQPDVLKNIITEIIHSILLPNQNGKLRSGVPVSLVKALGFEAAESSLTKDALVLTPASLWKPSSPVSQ
UniProt Q8TBE0: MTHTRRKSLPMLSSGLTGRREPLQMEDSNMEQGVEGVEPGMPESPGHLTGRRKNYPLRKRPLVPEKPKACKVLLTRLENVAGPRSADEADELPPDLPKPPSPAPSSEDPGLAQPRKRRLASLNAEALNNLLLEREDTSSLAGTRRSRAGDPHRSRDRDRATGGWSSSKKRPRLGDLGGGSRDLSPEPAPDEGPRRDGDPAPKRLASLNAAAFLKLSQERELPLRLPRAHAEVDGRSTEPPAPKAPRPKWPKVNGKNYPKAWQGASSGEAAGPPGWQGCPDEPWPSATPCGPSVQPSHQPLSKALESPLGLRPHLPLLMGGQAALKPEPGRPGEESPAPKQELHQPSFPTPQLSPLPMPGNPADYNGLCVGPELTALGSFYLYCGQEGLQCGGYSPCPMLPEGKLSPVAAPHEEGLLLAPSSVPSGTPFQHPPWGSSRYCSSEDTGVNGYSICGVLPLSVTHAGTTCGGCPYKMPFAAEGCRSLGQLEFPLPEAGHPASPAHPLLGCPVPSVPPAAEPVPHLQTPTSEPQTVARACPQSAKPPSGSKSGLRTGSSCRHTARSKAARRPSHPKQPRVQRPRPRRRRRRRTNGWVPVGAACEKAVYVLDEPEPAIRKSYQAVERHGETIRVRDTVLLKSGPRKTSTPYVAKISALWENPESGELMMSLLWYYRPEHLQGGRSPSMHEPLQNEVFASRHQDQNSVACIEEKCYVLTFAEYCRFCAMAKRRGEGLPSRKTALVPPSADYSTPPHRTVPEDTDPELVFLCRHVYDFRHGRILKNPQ
UniProt O43521, whole entry, looked up: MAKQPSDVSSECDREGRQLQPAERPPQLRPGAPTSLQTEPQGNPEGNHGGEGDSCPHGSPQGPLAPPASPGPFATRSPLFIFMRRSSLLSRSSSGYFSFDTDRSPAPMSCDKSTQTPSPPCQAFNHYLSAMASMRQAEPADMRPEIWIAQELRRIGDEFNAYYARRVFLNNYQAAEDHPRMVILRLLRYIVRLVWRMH
UniProt Q9HCU9: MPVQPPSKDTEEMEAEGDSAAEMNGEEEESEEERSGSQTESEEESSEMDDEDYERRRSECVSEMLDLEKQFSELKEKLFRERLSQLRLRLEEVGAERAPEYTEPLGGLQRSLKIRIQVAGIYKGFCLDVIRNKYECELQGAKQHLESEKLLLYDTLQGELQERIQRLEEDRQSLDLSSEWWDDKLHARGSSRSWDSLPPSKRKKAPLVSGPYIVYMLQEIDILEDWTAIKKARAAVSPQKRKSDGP
UniProt O00512: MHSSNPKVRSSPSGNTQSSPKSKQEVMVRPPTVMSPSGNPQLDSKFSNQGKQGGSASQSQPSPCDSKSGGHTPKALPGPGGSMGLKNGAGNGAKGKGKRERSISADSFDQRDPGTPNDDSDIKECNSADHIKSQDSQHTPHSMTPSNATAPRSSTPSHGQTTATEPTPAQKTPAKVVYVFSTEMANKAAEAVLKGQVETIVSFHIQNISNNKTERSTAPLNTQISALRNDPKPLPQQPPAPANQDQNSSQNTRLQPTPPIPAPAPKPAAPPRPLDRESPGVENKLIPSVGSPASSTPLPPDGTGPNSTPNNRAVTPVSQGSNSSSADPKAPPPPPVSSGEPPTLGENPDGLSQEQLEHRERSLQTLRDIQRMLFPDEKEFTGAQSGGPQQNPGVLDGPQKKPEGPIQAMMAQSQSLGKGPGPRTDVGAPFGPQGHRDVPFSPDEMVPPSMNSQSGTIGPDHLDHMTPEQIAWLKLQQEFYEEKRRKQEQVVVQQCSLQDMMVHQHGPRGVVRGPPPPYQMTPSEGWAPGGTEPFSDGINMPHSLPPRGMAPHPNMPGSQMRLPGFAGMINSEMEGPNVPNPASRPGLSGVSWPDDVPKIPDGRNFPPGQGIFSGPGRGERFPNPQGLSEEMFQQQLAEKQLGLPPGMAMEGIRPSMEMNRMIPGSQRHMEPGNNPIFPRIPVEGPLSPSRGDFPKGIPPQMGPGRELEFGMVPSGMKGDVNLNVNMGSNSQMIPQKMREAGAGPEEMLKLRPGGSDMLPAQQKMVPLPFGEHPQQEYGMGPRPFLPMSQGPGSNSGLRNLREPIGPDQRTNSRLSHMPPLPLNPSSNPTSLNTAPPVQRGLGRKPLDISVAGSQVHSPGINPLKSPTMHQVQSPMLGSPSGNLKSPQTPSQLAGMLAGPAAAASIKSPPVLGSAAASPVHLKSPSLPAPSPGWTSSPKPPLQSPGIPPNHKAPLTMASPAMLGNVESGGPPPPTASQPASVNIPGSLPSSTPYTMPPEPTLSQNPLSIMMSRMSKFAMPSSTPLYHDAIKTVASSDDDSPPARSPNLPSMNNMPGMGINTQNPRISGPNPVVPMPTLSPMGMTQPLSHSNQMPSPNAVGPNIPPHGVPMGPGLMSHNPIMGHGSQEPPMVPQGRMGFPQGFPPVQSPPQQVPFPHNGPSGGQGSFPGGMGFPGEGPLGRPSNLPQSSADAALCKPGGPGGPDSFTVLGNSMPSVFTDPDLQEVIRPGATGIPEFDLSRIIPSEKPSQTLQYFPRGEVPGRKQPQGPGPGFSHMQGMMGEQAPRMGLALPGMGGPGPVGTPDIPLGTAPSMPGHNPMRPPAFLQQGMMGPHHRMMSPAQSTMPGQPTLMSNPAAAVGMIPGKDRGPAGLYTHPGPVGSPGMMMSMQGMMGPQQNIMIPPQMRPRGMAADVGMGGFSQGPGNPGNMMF
UniProt Q9H7T9: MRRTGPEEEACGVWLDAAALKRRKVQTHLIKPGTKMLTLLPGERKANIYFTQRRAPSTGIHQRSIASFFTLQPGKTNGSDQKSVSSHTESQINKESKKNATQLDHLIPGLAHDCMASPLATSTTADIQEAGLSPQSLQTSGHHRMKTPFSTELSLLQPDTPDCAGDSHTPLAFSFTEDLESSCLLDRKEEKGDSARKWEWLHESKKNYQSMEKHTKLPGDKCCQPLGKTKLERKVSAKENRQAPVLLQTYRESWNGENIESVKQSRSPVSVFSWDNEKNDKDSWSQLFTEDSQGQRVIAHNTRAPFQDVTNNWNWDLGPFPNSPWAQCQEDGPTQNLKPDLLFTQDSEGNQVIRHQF
UniProt Q9BQE9, whole entry, looked up: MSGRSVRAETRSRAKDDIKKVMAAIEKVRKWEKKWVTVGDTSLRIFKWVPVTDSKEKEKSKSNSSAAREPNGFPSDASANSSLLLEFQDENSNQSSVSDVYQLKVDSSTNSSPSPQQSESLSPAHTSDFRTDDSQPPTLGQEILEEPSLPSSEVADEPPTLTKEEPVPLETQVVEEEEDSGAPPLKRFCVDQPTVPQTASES
UniProt Q93088: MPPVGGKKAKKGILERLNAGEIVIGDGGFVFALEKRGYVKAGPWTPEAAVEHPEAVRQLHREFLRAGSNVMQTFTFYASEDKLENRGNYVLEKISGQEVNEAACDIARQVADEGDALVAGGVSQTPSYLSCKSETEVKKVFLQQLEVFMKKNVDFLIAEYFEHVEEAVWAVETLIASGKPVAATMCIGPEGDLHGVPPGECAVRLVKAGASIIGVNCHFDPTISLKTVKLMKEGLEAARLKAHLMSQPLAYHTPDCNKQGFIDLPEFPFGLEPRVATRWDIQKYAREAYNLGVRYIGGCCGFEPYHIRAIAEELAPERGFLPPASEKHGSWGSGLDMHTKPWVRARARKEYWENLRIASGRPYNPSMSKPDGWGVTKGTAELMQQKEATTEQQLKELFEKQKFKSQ
UniProt Q9H6U6: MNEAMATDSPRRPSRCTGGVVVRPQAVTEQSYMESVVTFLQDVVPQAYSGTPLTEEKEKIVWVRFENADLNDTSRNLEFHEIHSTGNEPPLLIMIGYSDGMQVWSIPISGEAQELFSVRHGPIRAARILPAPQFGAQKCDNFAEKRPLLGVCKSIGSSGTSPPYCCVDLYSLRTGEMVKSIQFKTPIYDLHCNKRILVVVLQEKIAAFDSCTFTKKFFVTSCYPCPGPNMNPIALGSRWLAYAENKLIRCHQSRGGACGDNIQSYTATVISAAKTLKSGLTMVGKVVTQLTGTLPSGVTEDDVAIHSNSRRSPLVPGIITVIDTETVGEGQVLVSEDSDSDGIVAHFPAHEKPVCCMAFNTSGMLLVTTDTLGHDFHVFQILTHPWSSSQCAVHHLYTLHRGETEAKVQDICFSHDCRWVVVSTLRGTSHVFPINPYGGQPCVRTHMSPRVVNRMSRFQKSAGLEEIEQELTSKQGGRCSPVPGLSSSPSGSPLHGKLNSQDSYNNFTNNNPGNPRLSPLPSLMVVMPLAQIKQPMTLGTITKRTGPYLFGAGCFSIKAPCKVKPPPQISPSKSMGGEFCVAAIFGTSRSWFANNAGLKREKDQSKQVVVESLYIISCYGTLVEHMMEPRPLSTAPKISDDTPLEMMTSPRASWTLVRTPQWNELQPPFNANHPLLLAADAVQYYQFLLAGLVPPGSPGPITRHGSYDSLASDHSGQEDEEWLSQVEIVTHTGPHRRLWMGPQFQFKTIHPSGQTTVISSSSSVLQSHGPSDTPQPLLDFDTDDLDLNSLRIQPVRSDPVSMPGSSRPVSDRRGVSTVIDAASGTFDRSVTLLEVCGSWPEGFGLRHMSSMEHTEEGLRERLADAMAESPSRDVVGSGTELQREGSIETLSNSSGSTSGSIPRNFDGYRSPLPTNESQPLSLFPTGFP

log2 fold change, inactive:
AURKB isoform 5 (UniProt Q96GD4) 0.859
BPTF (UniProt Q12830) 0.076
BET1L (UniProt Q9NYM9) 0.086
BNIP3L (UniProt O60238) 0.011
BRAF, A0A2R8Y8E0 0.112
BPIFB1 (UniProt Q8TDL5) -0.168
BAHD1 (UniProt Q8TBE0) -0.055
BAZ1B (UniProt Q9UIG0) -0.16
BCL2L11 (UniProt O43521) -0.068
ATXN2 (UniProt F8W0B5) 0.053

The targets below were run with Cc1nc(Nc2ncc(C(=O)Nc3c(C)cccc3Cl)s2)cc(N2CCN(CCO)CC2)n1 [dasatinib] in the same assay as above.
Outline: as §1

log2 fold change, inactive:
AURKB isoform 5 (UniProt Q96GD4) 0.331
BPTF (UniProt Q12830) -0.112
BRMS1 (UniProt Q9HCU9) 0.035
BCL9 (UniProt O00512) 0.028
AUNIP isoform 2 (UniProt Q9H7T9) -0.284
BET1L (UniProt Q9NYM9) 0
AURKAIP1 (UniProt Q9NWT8) 0.033
BCL7B (UniProt Q9BQE9) -0.079
BNIP3L (UniProt O60238) 0.025
BHMT (UniProt Q93088) 0.035
BCAS3 isoform 8 (UniProt Q9H6U6) -0.225
BCL2L11 (UniProt O43521) 0.07
ATXN2 (UniProt F8W0B5) -0.059

The targets below were run with Cc1ncc(-c2ccnc(Nc3ccc(S(C)(=O)=O)cc3)n2)n1C(C)C in the same assay as above.
Outline: as §1

log2 fold change, inactive:
AURKB isoform 5 (UniProt Q96GD4) 0.371
BPTF (UniProt Q12830) 0.361
BET1L (UniProt Q9NYM9) -0.027
BNIP3L (UniProt O60238) -0.037
BRAF, A0A2R8Y8E0 -0.236
BPIFB1 (UniProt Q8TDL5) -0.411
BAHD1 (UniProt Q8TBE0) -0.049
BAZ1B (UniProt Q9UIG0) -0.122
BCL2L11 (UniProt O43521) 0.049
ATXN2 (UniProt F8W0B5) 0.024

Source: the supplement of paper PMC10849652
